Laboratory results: patent US20230276831A1, “Food/Beverage Article” (Kikkoman Corporation, priority 2020, published 2023)
The source gives many values for each of these; only a part stands here.

Experiments:
[1] = test system: Lactobacillus rennini DSM 20253; assay: Antimicrobial action of licoricidin in liquid seasoning (1), lactic acid bacteria A; type: cell-based; parameters: key: A: The bacterial count decreases to less than 10% of the bacterial count of the control group.; B: The bacterial count decreases to 10% or more and less than 50% of the bacterial count of the control group.; C: The bacterial count decreases to 50% or more and less than 100% of the bacterial count of control group.; D: The bacterial count is the same as the bacterial count of the control group; details: Soy sauce
Description: Commercially available whole soybean soy sauce (produced by Kikkoman Corporation) was electrodialyzed and then concentrated under reduced pressure to obtain soy sauce at a salt concentration of 0% (w/v) and an alcohol concentration of 0% (v/v). Then, salt and/or alcohol was added to the above-mentioned obtained soy sauce, and the mixture was heat-treated to produce soy sauces at salt concentrations and alcohol concentrations shown in the following Table 5. The pHs of the soy sauces were 4.9 to 5.0. […]
Licoricidin (produced by ChemFaces) was added to each of the liquid seasonings produced in the above-mentioned (1) to concentrations of 1 ppm, 5 ppm, 10 ppm, 25 ppm, and 50 ppm. Lactic acid bacteria described in the following Table 9 were then added to 10^6 to 10^7 cells/mL and cultured at 30° C. for 7 days. After the culture, the number of lactic acid bacteria was measured using the GAM agar medium “Nissui”. Liquid seasoning to which licoricidin was not added was used as a control group, and the antimicrobial activity was evaluated in comparison with the number of lactic acid bacteria in the control group. The evaluation was performed using the criterion shown below.
(§1) • A: The bacterial count decreases to less than 10% of the bacterial count of the control group. • B: The bacterial count decreases to 10% or more and less than 50% of the bacterial count of the control group. • C: The bacterial count decreases to 50% or more and less than 100% of the bacterial count of control group. • D: The bacterial count is the same as the bacterial count of the control group.

[2] = test system: Lactobacillus rennini (DSM 20253); assay: Antimicrobial action of licoricidin in liquid dressing, lightly-pickled vegetables and cooking vinegar (Test Example 9); type: cell-based
From the text: Specifically, Koikuchi soy sauce (produced by Kikkoman Corporation), table vinegar, mirin, granulated sugar, kelp stock, and water were blended in amounts shown in the following Table 24, and the resulting mixture was heated to produce liquid dressing. The salt concentration of the obtained liquid dressing was 2.6% (w/v), the alcohol concentration was 0.8% (v/v), the pH was 4.2.
Specifically, Usukuchi soy sauce (produced by Kikkoman Corporation), table vinegar, corn syrup, isomerized sugar, salt, granulated sugar, sodium glutamate (MSG), lemon fruit juice, kelp stock, and water were blended in amounts shown in the following Table 25, and the mixture was heated to produce seasoning liquid for lightly-pickled vegetables. Chinese cabbages were fully soaked therein to produce lightly-pickled vegetables. The salt concentration of the obtained seasoning liquid for lightly-pickled vegetables was 3.1% (w/v), the alcohol concentration was 0.01% (v/v), and the pH was 4.4.
Specifically, table vinegar, salt, granulated sugar, lemon fruit juice, sodium glutamate (MSG), and water in amounts shown in following Table 26 were blended, and the mixture was heated to produce cooking vinegar. The salt concentration of the obtained cooking vinegar was 1.5% (w/v), the alcohol concentration was 0% (v/v), and the pH was 3.8.
Licoricidin (produced by ChemFaces) was added to each of the above-mentioned produced liquid dressing, lightly-pickled vegetables, and cooking vinegar to concentrations of 1 ppm, 5 ppm, 10 ppm, 25 ppm, and 50 ppm. Lactic acid bacteria (Lactobacillus rennini (DSM 20253)) were then added to 10^6 to 10^7 cells/mL. The bacteria were cultured in the liquid dressing and the lightly-pickled vegetables at 30° C. for 7 days, and the bacteria were cultured in the cooking vinegar at 30° C. for 3 days. After the culture, the number of lactic acid bacteria was measured using the GAM agar medium “Nissui”. The liquid dressing, the lightly-pickled vegetables, and the cooking vinegar to which licoricidin was not added were used as respective control groups, and the antimicrobial activity was evaluated in comparison with the number of lactic acid bacteria in the control group. The evaluation was performed using the same criterion as in Test Example 4.
as §1

In the case of `COc1c(CC=C(C)C)c(O)cc2c1C[C@H](c1ccc(O)c(CC=C(C)C)c1O)CO2` [Licoricidin, 4-[(R)-7-hydroxy-5-methoxy-6-(3-methyl-2-butenyl)chroman-3-yl]-2-(3-methyl-2-butenyl)-1,3-benzenediol], the Antimicrobial activity ([1]; salt 4% (w/v), alcohol 10% (v/v), licoricidin 1 ppm) is reported as “A (The bacterial count decreases to less than 10% of the bacterial count of the control group.)”, the Antimicrobial activity ([1]; salt 4% (w/v), alcohol 10% (v/v), licoricidin 5 ppm) is reported as “A (The bacterial count decreases to less than 10% of the bacterial count of the control group.)” and the Antimicrobial activity ([1]; salt 4% (w/v), alcohol 10% (v/v), licoricidin 10 ppm) is reported as “A (The bacterial count decreases to less than 10% of the bacterial count of the control group.)”. The Antimicrobial activity ([1]; salt 4% (w/v), alcohol 10% (v/v), licoricidin 25 ppm) was “A (The bacterial count decreases to less than 10% of the bacterial count of the control group.)”, the Antimicrobial activity ([1]; salt 4% (w/v), alcohol 10% (v/v), licoricidin 50 ppm) was “A (The bacterial count decreases to less than 10% of the bacterial count of the control group.)” and the Antimicrobial activity ([1]; salt 8% (w/v), alcohol 0% (v/v), licoricidin 1 ppm) was “C (The bacterial count decreases to 50% or more and less than 100% of the bacterial count of control group.)”. For the same compound, the Antimicrobial activity ([1]; salt 8% (w/v), alcohol 0% (v/v), licoricidin 5 ppm) was “A (The bacterial count decreases to less than 10% of the bacterial count of the control group.)”, the Antimicrobial activity ([1]; salt 8% (w/v), alcohol 0% (v/v), licoricidin 10 ppm) was “A (The bacterial count decreases to less than 10% of the bacterial count of the control group.)” and the Antimicrobial activity ([1]; salt 8% (w/v), alcohol 0% (v/v), licoricidin 25 ppm) was “A (The bacterial count decreases to less than 10% of the bacterial count of the control group.)”. For the same compound, the Antimicrobial activity ([1]; salt 8% (w/v), alcohol 0% (v/v), licoricidin 50 ppm) was “A (The bacterial count decreases to less than 10% of the bacterial count of the control group.)”, the Antimicrobial activity ([1]; salt 8% (w/v), alcohol 5% (v/v), licoricidin 1 ppm) was “B (The bacterial count decreases to 10% or more and less than 50% of the bacterial count of the control group.)” and the Antimicrobial activity ([1]; salt 8% (w/v), alcohol 5% (v/v), licoricidin 5 ppm) was “A (The bacterial count decreases to less than 10% of the bacterial count of the control group.)”. For the same compound, the Antimicrobial activity ([1]; salt 8% (w/v), alcohol 5% (v/v), licoricidin 10 ppm) was “A (The bacterial count decreases to less than 10% of the bacterial count of the control group.)”, the Antimicrobial activity ([1]; salt 8% (w/v), alcohol 5% (v/v), licoricidin 25 ppm) was “A (The bacterial count decreases to less than 10% of the bacterial count of the control group.)” and the Antimicrobial activity ([1]; salt 8% (w/v), alcohol 5% (v/v), licoricidin 50 ppm) was “A (The bacterial count decreases to less than 10% of the bacterial count of the control group.)”. The Antimicrobial activity ([1]; salt 12% (w/v), alcohol 0% (v/v), licoricidin 1 ppm) was “D”, the Antimicrobial activity ([1]; salt 12% (w/v), alcohol 0% (v/v), licoricidin 5 ppm) was “A (The bacterial count decreases to less than 10% of the bacterial count of the control group.)” and the Antimicrobial activity ([1]; salt 12% (w/v), alcohol 0% (v/v), licoricidin 10 ppm) was “A (The bacterial count decreases to less than 10% of the bacterial count of the control group.)”. For the same compound, the Antimicrobial activity ([1]; salt 12% (w/v), alcohol 0% (v/v), licoricidin 25 ppm) was “A (The bacterial count decreases to less than 10% of the bacterial count of the control group.)”, the Antimicrobial activity ([1]; salt 12% (w/v), alcohol 0% (v/v), licoricidin 50 ppm) was “A (The bacterial count decreases to less than 10% of the bacterial count of the control group.)” and the Antimicrobial activity ([1]; salt 12% (w/v), alcohol 5% (v/v), licoricidin 1 ppm) was “A (The bacterial count decreases to less than 10% of the bacterial count of the control group.)”. The Antimicrobial activity ([1]; salt 12% (w/v), alcohol 5% (v/v), licoricidin 5 ppm) was “A (The bacterial count decreases to less than 10% of the bacterial count of the control group.)”, the Antimicrobial activity ([1]; salt 12% (w/v), alcohol 5% (v/v), licoricidin 10 ppm) was “A (The bacterial count decreases to less than 10% of the bacterial count of the control group.)” and the Antimicrobial activity ([1]; salt 12% (w/v), alcohol 5% (v/v), licoricidin 25 ppm) was “A (The bacterial count decreases to less than 10% of the bacterial count of the control group.)”. The Antimicrobial activity ([1]; salt 12% (w/v), alcohol 5% (v/v), licoricidin 50 ppm) was “A (The bacterial count decreases to less than 10% of the bacterial count of the control group.)”, the Antimicrobial activity ([2]; Cooking vinegar (salt 1.5% (w/v), alcohol 0% (v/v), pH 3.8), 30° C. 3 days, licoricidin 1 ppm) was “A (The bacterial count decreases to less than 10% of the bacterial count of the control group.)” and the Antimicrobial activity ([2]; Cooking vinegar (salt 1.5% (w/v), alcohol 0% (v/v), pH 3.8), 30° C. 3 days, licoricidin 5 ppm) was “A (The bacterial count decreases to less than 10% of the bacterial count of the control group.)”. For the same compound, the Antimicrobial activity ([2]; Cooking vinegar (salt 1.5% (w/v), alcohol 0% (v/v), pH 3.8), 30° C. 3 days, licoricidin 10 ppm) was “A (The bacterial count decreases to less than 10% of the bacterial count of the control group.)”, the Antimicrobial activity ([2]; Cooking vinegar (salt 1.5% (w/v), alcohol 0% (v/v), pH 3.8), 30° C. 3 days, licoricidin 25 ppm) was “A (The bacterial count decreases to less than 10% of the bacterial count of the control group.)” and the Antimicrobial activity ([2]; Cooking vinegar (salt 1.5% (w/v), alcohol 0% (v/v), pH 3.8), 30° C. 3 days, licoricidin 50 ppm) was “A (The bacterial count decreases to less than 10% of the bacterial count of the control group.)”. The Antimicrobial activity ([2]; Lightly-pickled vegetables (seasoning liquid salt 3.1% (w/v), alcohol 0.01% (v/v), pH 4.4), 30° C. 7 days, licoricidin 1 ppm) was “B (The bacterial count decreases to 10% or more and less than 50% of the bacterial count of the control group.)”, the Antimicrobial activity ([2]; Lightly-pickled vegetables (seasoning liquid salt 3.1% (w/v), alcohol 0.01% (v/v), pH 4.4), 30° C. 7 days, licoricidin 5 ppm) was “C (The bacterial count decreases to 50% or more and less than 100% of the bacterial count of control group.)” and the Antimicrobial activity ([2]; Lightly-pickled vegetables (seasoning liquid salt 3.1% (w/v), alcohol 0.01% (v/v), pH 4.4), 30° C. 7 days, licoricidin 10 ppm) was “A (The bacterial count decreases to less than 10% of the bacterial count of the control group.)”. For the same compound, the Antimicrobial activity ([2]; Lightly-pickled vegetables (seasoning liquid salt 3.1% (w/v), alcohol 0.01% (v/v), pH 4.4), 30° C. 7 days, licoricidin 25 ppm) was “A (The bacterial count decreases to less than 10% of the bacterial count of the control group.)”, the Antimicrobial activity ([2]; Lightly-pickled vegetables (seasoning liquid salt 3.1% (w/v), alcohol 0.01% (v/v), pH 4.4), 30° C. 7 days, licoricidin 50 ppm) was “A (The bacterial count decreases to less than 10% of the bacterial count of the control group.)” and the Antimicrobial activity ([2]; Liquid dressing (salt 2.6% (w/v), alcohol 0.8% (v/v), pH 4.2), 30° C. 7 days, licoricidin 1 ppm) was “A (The bacterial count decreases to less than 10% of the bacterial count of the control group.)”. The Antimicrobial activity ([2]; Liquid dressing (salt 2.6% (w/v), alcohol 0.8% (v/v), pH 4.2), 30° C. 7 days, licoricidin 5 ppm) was “A (The bacterial count decreases to less than 10% of the bacterial count of the control group.)”, the Antimicrobial activity ([2]; Liquid dressing (salt 2.6% (w/v), alcohol 0.8% (v/v), pH 4.2), 30° C. 7 days, licoricidin 10 ppm) was “A (The bacterial count decreases to less than 10% of the bacterial count of the control group.)” and the Antimicrobial activity ([2]; Liquid dressing (salt 2.6% (w/v), alcohol 0.8% (v/v), pH 4.2), 30° C. 7 days, licoricidin 25 ppm) was “A (The bacterial count decreases to less than 10% of the bacterial count of the control group.)”. The Antimicrobial activity ([2]; Liquid dressing (salt 2.6% (w/v), alcohol 0.8% (v/v), pH 4.2), 30° C. 7 days, licoricidin 50 ppm) was “A (The bacterial count decreases to less than 10% of the bacterial count of the control group.)”.
